Test results taken from article doi:10.1101/2024.08.28.609967 (bioRxiv, 2024).

Amino acid sequences for entries named in this document (tags omitted). Residues count along the entry.
UniProt O60238, residues 1-182: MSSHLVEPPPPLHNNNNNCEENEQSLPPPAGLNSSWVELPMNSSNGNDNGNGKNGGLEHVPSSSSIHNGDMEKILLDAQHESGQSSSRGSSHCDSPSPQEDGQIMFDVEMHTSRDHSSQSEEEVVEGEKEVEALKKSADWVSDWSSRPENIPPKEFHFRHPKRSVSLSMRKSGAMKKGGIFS

B1: PPTC7 (endogenous, HeLa) (protein, UniProt Q8NI37 69-304)
chain: RSADVLGVADGVGGWRDYGVDPSQFSGTLMRTCERLVKEGRFVPSNPIGILTTSYCELLQNKVPLLGSSTACIVVLDRTSHRLHTANLGDSGFLVVRGGEVVHRSDEQQHYFNTPFQLSIAPPEAEGVVLSDSPDAADSTSFDVQLGDIILTATDGLFDNMPDYMILQELKKLKNSNYESIQQTARSIAEQAHELAYDPNYMSPFAQFACDNGLNVRGGKPDDITVLLSIVAEYTD
B2: WIPI2 (endogenous, HeLa) (protein, UniProt Q9Y4P8 1-454)
chain: MNLASQSGEAGAGQLLFANFNQDNTEVKGASRAAGLGRRAVVWSLAVGSKSGYKFFSLSSVDKLEQIYECTDTEDVCIVERLFSSSLVAIVSLKAPRKLKVCHFKKGTEICNYSYSNTILAVKLNRQRLIVCLEESLYIHNIRDMKVLHTIRETPPNPAGLCALSINNDNCYLAYPGSATIGEVQVFDTINLRAANMIPAHDSPLAALAFDASGTKLATASEKGTVIRVFSIPEGQKLFEFRRGVKRCVSICSLAFSMDGMFLSASSNTETVHIFKLETVKEKPPEEPTTWTGYFGKVLMASTSYLPSQVTEMFNQGRAFATVRLPFCGHKNICSLATIQKIPRLLVGAADGYLYMYNLDPQEGGECALMKQHRLDGSLETTNEILDSASHDCPLVTQTYGAAAGKGTYVPSSPTRLAYTDDLGAVGGACLEDEASALRLDEDSEHPPMILRTD

Columns and labels:
NIX(1–182aa)-GST (human) = NIX(1–182aa)-GST (human) (UniProt O60238); assay: affinity purification with mass spectrometry; GSH beads coated with NIX(1-182)-GST, BNIP3(1-158)-GST or GST, incubated overnight with HeLa cell lysate (100 mM KCl, 2.5 mM MgCl2, 20 mM Tris-HCl pH 7.4, 0.5% NP-40); label-free quantitative mass spectrometry; only the target purified
[1] = molecular target: BNIP3(1–158aa)-GST (human); assay: as above

Binder | binding (NIX(1–182aa)-GST (human)) | binding [1]
B1 | binds | binds
B2 | binds | –

Results are given in words; binding and its absence hold for the method and conditions named. Binding seen in cells or lysates may run through a third protein. A yes stands for co-enrichment or nearness to the bait. Other partners may have been found.
